Experiment [1] deals with T1, ORF59-Flag (KSHV (human herpesvirus 8)) (UniProt F5HID2).
T1 sequence: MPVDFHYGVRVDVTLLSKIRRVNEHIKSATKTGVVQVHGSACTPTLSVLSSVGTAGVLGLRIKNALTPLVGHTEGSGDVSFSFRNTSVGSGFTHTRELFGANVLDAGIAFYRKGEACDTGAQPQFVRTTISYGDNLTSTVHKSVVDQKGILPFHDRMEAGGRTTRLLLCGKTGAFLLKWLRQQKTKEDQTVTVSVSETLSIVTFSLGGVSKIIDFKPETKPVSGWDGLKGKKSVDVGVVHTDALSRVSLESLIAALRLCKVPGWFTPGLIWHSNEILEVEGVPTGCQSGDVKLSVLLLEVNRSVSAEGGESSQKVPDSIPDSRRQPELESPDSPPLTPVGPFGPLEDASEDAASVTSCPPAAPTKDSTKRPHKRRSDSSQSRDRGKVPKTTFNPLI
Briefly: co-IP.

Chains of the proteins cited; added tags and fusions are not shown. Lines headed by an entry give the natural chain unless they say otherwise; changes in a name come on top. A line that says so, or that is headed by a name, gives the form on record, which may keep a tag or linker. Residues count along the entry.
UniProt O14744: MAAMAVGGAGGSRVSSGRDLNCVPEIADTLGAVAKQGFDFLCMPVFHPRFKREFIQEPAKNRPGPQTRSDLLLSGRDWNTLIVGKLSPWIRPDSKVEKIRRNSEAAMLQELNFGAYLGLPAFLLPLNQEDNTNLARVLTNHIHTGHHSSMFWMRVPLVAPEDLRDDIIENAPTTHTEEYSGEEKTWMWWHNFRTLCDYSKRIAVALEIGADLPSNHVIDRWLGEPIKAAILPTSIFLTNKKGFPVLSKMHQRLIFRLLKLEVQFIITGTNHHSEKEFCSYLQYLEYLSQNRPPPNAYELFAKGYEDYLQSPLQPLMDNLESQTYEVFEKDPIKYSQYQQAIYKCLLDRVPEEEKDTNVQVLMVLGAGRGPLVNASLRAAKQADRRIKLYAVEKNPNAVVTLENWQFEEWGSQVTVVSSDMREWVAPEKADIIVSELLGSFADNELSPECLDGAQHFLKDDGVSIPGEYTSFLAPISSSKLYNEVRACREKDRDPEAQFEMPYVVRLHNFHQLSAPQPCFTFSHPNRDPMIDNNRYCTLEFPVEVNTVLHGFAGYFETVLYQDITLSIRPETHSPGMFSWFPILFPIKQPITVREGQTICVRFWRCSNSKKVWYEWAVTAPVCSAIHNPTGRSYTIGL
Flag-tagged PRMT5 210-420aa: residues 210-420 of O14744

Experiment [2] deals with Flag-tagged PRMT5 210-420aa (human) (UniProt O14744). Briefly: co-IP.

These are yes or no findings as the source states them, for the method shown. Binding seen in cells or lysates may run through a third protein. Some binding calls cover weakened binding; strength is not graded here. Where a sequence is shown, tags or fusion partners need not be part of it.

Turning to PRMT5-Myc (from UniProt O14744 1-637), the binding entry in experiment [1] is on record as “binds”.

B1: ORF59-HA (protein, UniProt F5HID2 1-396)
chain: T1 sequence
In the case of B1, in experiment [2], the binding result was “binds”.

Source of the values: publication PMC5513536.
